Test results: paper PMC6868398
These are yes or no findings as the source states them, for the method shown. Binding can be weak; no strength is given. Where a sequence is shown, tags or fusion partners need not be part of it. Values belong to the binder of their own block, whether it stands above or below them.

Chains of the proteins cited; added tags and fusions are not shown. Lines headed by an entry give the natural chain unless they say otherwise; changes in a name come on top.
UniProt Q18605: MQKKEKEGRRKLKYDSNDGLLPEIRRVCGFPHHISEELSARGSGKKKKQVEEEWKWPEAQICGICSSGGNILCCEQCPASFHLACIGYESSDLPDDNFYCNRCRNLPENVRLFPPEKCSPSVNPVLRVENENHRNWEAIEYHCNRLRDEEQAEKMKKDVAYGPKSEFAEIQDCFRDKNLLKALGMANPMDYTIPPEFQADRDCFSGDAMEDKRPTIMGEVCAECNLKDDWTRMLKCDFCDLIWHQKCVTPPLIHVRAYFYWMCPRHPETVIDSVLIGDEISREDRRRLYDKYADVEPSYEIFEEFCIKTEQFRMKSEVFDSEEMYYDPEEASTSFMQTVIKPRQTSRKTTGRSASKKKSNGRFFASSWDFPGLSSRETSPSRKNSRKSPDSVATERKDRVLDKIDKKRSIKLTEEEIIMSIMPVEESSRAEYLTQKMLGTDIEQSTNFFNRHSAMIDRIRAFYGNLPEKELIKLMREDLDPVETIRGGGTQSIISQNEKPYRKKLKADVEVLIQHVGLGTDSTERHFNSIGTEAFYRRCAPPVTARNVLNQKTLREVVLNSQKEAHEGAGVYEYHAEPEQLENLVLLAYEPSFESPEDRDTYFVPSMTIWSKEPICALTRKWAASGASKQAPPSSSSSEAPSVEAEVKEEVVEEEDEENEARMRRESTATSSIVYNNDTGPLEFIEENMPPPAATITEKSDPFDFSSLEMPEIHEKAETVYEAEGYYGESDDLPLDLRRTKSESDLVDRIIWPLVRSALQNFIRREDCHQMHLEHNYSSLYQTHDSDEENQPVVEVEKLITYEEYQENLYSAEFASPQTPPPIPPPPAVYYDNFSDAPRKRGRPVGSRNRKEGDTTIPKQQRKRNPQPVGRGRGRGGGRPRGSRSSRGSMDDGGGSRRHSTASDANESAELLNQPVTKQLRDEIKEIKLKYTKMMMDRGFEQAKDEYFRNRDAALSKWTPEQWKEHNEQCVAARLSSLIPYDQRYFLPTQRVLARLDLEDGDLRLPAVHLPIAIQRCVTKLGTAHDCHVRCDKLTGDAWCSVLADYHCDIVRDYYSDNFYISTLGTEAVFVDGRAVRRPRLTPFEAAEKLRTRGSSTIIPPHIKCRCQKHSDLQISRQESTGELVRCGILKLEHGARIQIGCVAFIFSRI

Tests used:
Assay in all cases: two-hybrid; LexA (BD)/B42 (AD) system, cross-mating of EGY42a (BD + pSH18-34 reporter) and TB50alpha (AD) yeast, beta-galactosidase (X-Gal) staining after 48 h at 25°C; each hetero-interaction tested in both directions
[1] = biological target: ATHP-1 full length, yeast two-hybrid fusion (C. elegans) (UniProt Q18605)
[2] = biological target: SIN-3 N-terminal fragment, yeast two-hybrid fusion (C. elegans)
[3] = biological target: ATHP-1 C-terminal fragment, yeast two-hybrid fusion (C. elegans)

- binding [1]: binds
- binding [2]: binds
- binding [3]: binds
B1: CFP-1 full length, yeast two-hybrid fusion (protein, UniProt Q9XUE7 1-508)
chain: MSNKEIEDNEDVWKERCMNCIRCNDEKNCGTCWPCRNGKTCDMRKCFSAKRLYNEKVKRQTDENLKAIMAKTAQREAAHQAATTTAPSAPVVIEQQVEKKKRGRKKGSGNGGAAAAAQQRKANIINERDYVPNRPTRQQSADLRRKRTQLNAEPDKHPRQCLNPNCIYESRIDSKYCSDECGKELARMRLTEILPNRCKQYFFEGPSGGPRSLEDEIKPKRAKINREVQKLTESEKNMMAFLNKLVEFIKTQLKLQPLGTEERYDDNLYEGCIVCGLPDIPLLKYTKHIELCWARSEKAISFGAPEKNNDMFYCEKYDSRTNSFCKRLKSLCPEHRKLGDEQHLKVCGYPKKWEDGMIETAKTVSELIEMEDPFGEEGCRTKKDACHKHHKWIPSLRGTIELEQACLFQKMYELCHEMHKLNAHAEWTTNALSIMMHKQPNIIDSEQMSLFNKSQSTSSSASAHGATTPISSTSSSSSSSSKNDDEMEDTAEFLANLAVQKEEETQNN

- binding [1]: binds
B2: MRG-1 full length, yeast two-hybrid fusion (protein, UniProt A7DTF0 1-337)
chain: MSSKKNFEVGENVACIYKGKPYDAKITDIKTNSDGKELYCVHFKGWNNRYDEKIPVGEEKDRIFKGTASEYAEKHNAELPTTALKPKKKSLAAEAPRDDRDDTPGTSKGKKAKSVTIAPVMTADDMKVELPKPLRKILIDDYDLVCRYFINIVPHEYSVDQIIEDYIKTIPVSNEQMRTVDDLLIEYEEADIKITNLALICTARGLVDYFNVTLGSSYQLLYKFERPQYNDLVKKRAMEKGIDITNPTALQDSGFRPSQEYGIVHFLRMLAKLPDYLKLTQWNDHVINRIMIGVHDLIVFLNKNHGKYYRGSSDYQGASNDYYRRSLAADDGVGANQ
